# Measurements taken from the supplement of paper PMC9135407.
# Values joined by “and” are separate entries in the source; they are usually repeats but may differ in a detail not shown here. Identical values can stand only once. Counter-ions that a name gives are not always drawn. ± gives the standard deviation of the averaged measurements. Some of the results follow. Baselines shift from plate to plate; read single values as rough.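 Assay uses culture-activated primary human stellate myofibroblasts; lipid droplet recovery indicates inactivation. Measured: proportion of Hoechst-counted cells over a plate-specific Bodipy cutoff, duplicate wells, DMSO and nortriptyline as per-plate negative and positive controls. A hit scores, control-normalized, above the plate's top-tenth-percentile nortriptyline wells or ranks among its three best wells. Final well concentrations not reported.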
# System: primary human hepatic stellate cells (donor 1)
# Assay: percent Bodipy-positive cells; higher = more lipid droplet accumulation
# Details: 48 h
# [1] = library stock concentration: 10 mM
# [2] = library stock concentration: 1 mM
# [3] = library stock concentration: 3.33 mM
compound,measurement,setting,value
OC1CCC(Nc2ncc3nc(Nc4c(F)cc(F)cc4F)n([C@@H]4CCOC4)c3n2)CC1 (stereo not given in full),percent Bodipy-positive cells,library stock concentration: 80 uM,8.64 ± 3.5%
same,percent Bodipy-positive cells,library stock concentration: 400 uM,8.44 ± 1.9%
same,percent Bodipy-positive cells,library stock concentration: 2 mM,5.76 ± 0.66%
same,percent Bodipy-positive cells,[1],7.27 ± 0.89%
CC1CCN=C(N)S1 (stereo not given),percent Bodipy-positive cells,[1],38.6 ± 5.3%
CC1CCN=C(N)S1 (stereo not given) [AMT hydrochloride],percent Bodipy-positive cells,[1],5.22 ± 1.6%
N#C/C(=C\c1ccc(O)c(O)c1)C(=O)NCCCc1ccccc1,percent Bodipy-positive cells,[1],10.5 ± 3.7%
CCCCCCCCCCCCCCCC(=O)O [Palmitic Acid],percent Bodipy-positive cells,[2],11.4 ± 0.49%
C/C(=C\C(=O)OCCCCCCCCC(=O)O)C[C@@H]1OC[C@H](C[C@@H]2O[C@H]2[C@@H](C)[C@H](C)O)[C@@H](O)[C@H]1O [Mupirocin],percent Bodipy-positive cells,[3],11.2 ± 2.5%
same,percent Bodipy-positive cells,[1],37.7% and 27.4%
Clc1ccc2c(c1)C(N1CCNCC1)=Nc1ccccc1O2 [Amoxapine],percent Bodipy-positive cells,,85.3 ± 7.7%
C[C@H]1NC(=O)NC1=O [Methylhydantoin-5-(D)],percent Bodipy-positive cells,,8.12 ± 1.3%
Cc1ccnc(NS(=O)(=O)c2ccc(N)cc2)n1 [Sulfamerazine],percent Bodipy-positive cells,,11.4 ± 2.6%
same,percent Bodipy-positive cells,[3],11.3 ± 1.9%
same,percent Bodipy-positive cells,library stock concentration: 7.6 mM,21.3 ± 2.3%
same,percent Bodipy-positive cells,[1],27.8% and 20.5%
NC(=O)OCC(COC(N)=O)c1ccccc1 [Felbamate],percent Bodipy-positive cells,[3],24.9 ± 9.5%
CCC[S+]([O-])c1ccc2[nH]c(NC(=O)OC)nc2c1 (stereo not given) [Albendazole Oxide],percent Bodipy-positive cells,[3],6.19 ± 2.6%
same,percent Bodipy-positive cells,[1],14.6 ± 1.4%
CCC[S+]([O-])c1ccc2[nH]c(NC(=O)OC)nc2c1 (stereo not given) [Ricobendazole],percent Bodipy-positive cells,library stock concentration: 7.1 mM,6.9 ± 5.7%
Cl.N#CC1=C(N)NC(=C2C(=O)C=CC=C2OCC2CC2)C=C1C1CCNCC1,percent Bodipy-positive cells,[1],84.3 ± 1.7%
"CCCCS(=N)(=O)CCC(N)C(=O)O (racemic) [DL-Buthionine-[S,R]-sulfoximine]",percent Bodipy-positive cells,[1],42 ± 0.51%
N=C(N)NCc1cccc(I)c1 [Iobenguane sulfate],percent Bodipy-positive cells,,28 ± 0.72%
CCCCC/C=C/CCC(=O)N[C@H]1[C@H](Oc2c3cc4cc2Oc2ccc(cc2Cl)[C@@H](O[C@@H]2O[C@H](CO)[C@@H](O)[C@H](O)[C@H]2NC(C)=O)[C@@H]2NC(=O)[C@H](NC(=O)[C@@H]4NC(=O)[C@H]4NC(=O)C(Cc5ccc(c(Cl)c5)O3)NC(=O)[C@H](N)c3ccc(O)c(c3)Oc3cc(O)cc4c3)c3ccc(O)c(c3)-c3c(OC4O[C@H](CO)[C@@H](O)[C@H](O)[C@@H]4O)cc(O)cc3[C@@H](C(=O)O)NC2=O)O[C@H](CO)[C@@H](O)[C@@H]1O (stereo not given in full) [Teicoplanin [a(2-1) shown]],percent Bodipy-positive cells,library stock concentration: 1.1 mM,2.99 ± 1.5%
COc1ccc(C[C@H](N)C(=O)N[C@H]2[C@@H](O)[C@H](n3cnc4c(N(C)C)ncnc43)O[C@@H]2CO)cc1 [Puromycin 2HCl],percent Bodipy-positive cells,[3],96.7 ± 2.4%
same,percent Bodipy-positive cells,[1],98.67 ± 0.68%
COc1ccc(C[C@H](N)C(=O)N[C@H]2[C@@H](O)[C@H](n3cnc4c(N(C)C)ncnc43)O[C@@H]2CO)cc1 [Puromycin?2HCl],percent Bodipy-positive cells,library stock concentration: 9.4 mM,91 ± 1.4%
COc1ccc(C[C@H](N)C(=O)N[C@H]2[C@@H](O)[C@H](n3cnc4c(N(C)C)ncnc43)O[C@@H]2CO)cc1 [Puromycin dihydrochloride],percent Bodipy-positive cells,,96.9 ± 4.4%
COc1ccc(C[C@H](N)C(=O)N[C@H]2[C@@H](O)[C@H](n3cnc4c(N(C)C)ncnc43)O[C@@H]2CO)cc1 [Puromycin hydrochloride],percent Bodipy-positive cells,[1],97.4 ± 2.6%
[O-][n+]1cccc(CO)c1,percent Bodipy-positive cells,[1],42 ± 17%
OC(CC1c2ccccc2-c2cncn21)C1CCCCC1 (stereo not given),percent Bodipy-positive cells,[3],37.1 ± 2.2%
same,percent Bodipy-positive cells,[1],59 ± 7.2%
COCc1nc2c([nH]1)c(=O)n(C)c(=O)n2CC(C)C [8-methoxymethyl-IBMX],percent Bodipy-positive cells,library stock concentration: 18.8 mM,22.4 ± 8.1%
COCc1nc2c([nH]1)c(=O)n(C)c(=O)n2CC(C)C [8-Methoxymethyl-3-isobutyl-1-methylxanthine],percent Bodipy-positive cells,[1],46.9 ± 0.77%
CCCCCCCCCSCCCCCCCC(=O)O [9-Thiastearic Acid],percent Bodipy-positive cells,[2],5.75 ± 1.1%
CCCCCCCCCCCC(=O)CC(=O)N[C@H]1CCOC1=O [N-3-oxo-tetradecanoyl-L-Homoserine lactone],percent Bodipy-positive cells,[2],11.3 ± 5.2%
CNC(=O)c1c(F)cccc1Nc1nc(Nc2cc3c(cc2OC)CCN3C(=O)CN(C)C)nc2[nH]ccc12,percent Bodipy-positive cells,[3],98.08 ± 0.79%
N#CC(=Cc1cc(Cl)cc(Cl)c1)c1cccnc1,percent Bodipy-positive cells,library stock concentration: 18.2 mM,19.1 ± 1.6%
CCCCCCCCCC[Si](C)(C)CCC(=O)NC(Cc1ccc(C)cc1)c1ccccc1 (stereo not given) [Sandoz 58-035],percent Bodipy-positive cells,[1],45.6 ± 17%
COC(=O)Nc1ccc(-c2nc(N3CCOCC3)c3cnn(C4CCN(C(=O)OC)CC4)c3n2)cc1,percent Bodipy-positive cells,[3],8.31 ± 2.6%
same,percent Bodipy-positive cells,[1],21.7 ± 1.2%
O=C(O)CN(CC(=O)O)Cc1cc2c(cc1O)Oc1cc(O)c(CN(CC(=O)O)CC(=O)O)cc1C21OC(=O)c2ccccc21 [Calcein],percent Bodipy-positive cells,[1],0%
NCCCC(O)(P(=O)(O)O)P(=O)(O)O [Alendronate sodium],percent Bodipy-positive cells,library stock concentration: 6.1 mM,9.944 ± 0.08%
NCCCC(O)(P(=O)(O)O)P(=O)(O)O [Alendronate],percent Bodipy-positive cells,library stock concentration: 8.1 mM,10.5 ± 1.4%
O=C1NCCc2[nH]c(-c3ccnc(-c4cnc5ccccc5c4)c3)cc21 [MK-2 Inhibitor III],percent Bodipy-positive cells,[3],11.4 ± 3.2%
Nc1ccc(S(=O)(=O)Nc2cnc3ccccc3n2)cc1 [Sulfaquinoxaline sodium salt],percent Bodipy-positive cells,,11 ± 2.1%
Nc1ccc(S(=O)(=O)Nc2cnc3ccccc3n2)cc1 [Sulfaquinoxaline sodium],percent Bodipy-positive cells,library stock concentration: 6.2 mM,20.08 ± 0.18%
CNC[C@H](O)[C@@H](O)[C@H](O)[C@H](O)CO [Meglumine],percent Bodipy-positive cells,,9.71 ± 2.2%
same,percent Bodipy-positive cells,[3],7.53 ± 3.5%
same,percent Bodipy-positive cells,[1],13.8 ± 4.7%
